Reference: US20250275981A1, “HOMOHARRINGTONINE AND PACLITAXEL COMBINATION FOR THE TREATMENT OF BREAST CANCER” (priority 2022, published 2025)
For at least one compound, name, drawing or mass did not settle the structure.

Test system: HCC1428
Test: Cell viability drug titration (EC50), 4 days of drug treatment
Format: cell-based
Details: HCC1428 vs HCC1428 + HA-CREB3L1
Source text: Significance was defined as p<0.05.

## CC(=O)c1c(C)c2cnc(Nc3ccc(N4CCNCC4)cn3)nc2n(C2CCCC2)c1=O [Palbociclib Isethionate, palbociclib isethionate]
  drug sensitivity of HCC1428 as compared to the corresponding CREB3L1-expressing cells: increased drug sensitivity
